Data taken from paper PMC11655556.

Target: PDSS2-Del2 (prenyl diphosphate synthase subunit 2 with exon 2 deletion) (human)
Test: affinity purification with mass spectrometry; Co-IP with PDSS2 antibodies from lysates of 8024 and Huh7 cells with PDSS2-Del2 overexpression; pull-down samples analysed by mass spectrometry

binding: binds
B1: SKOR1 (SKI family transcriptional corepressor 1) (protein, UniProt P84550 1-965)
chain: MALLCGLGQVTLRIWVSLPSQSENGIGFLAARAFLRSGGMEALTTQLGPGREGSSSPNSKQELQPYSGSSALKPNQVGETSLYGVPIVSLVIDGQERLCLAQISNTLLKNYSYNEIHNRRVALGITCVQCTPVQLEILRRAGAMPISSRRCGMITKREAERLCKSFLGEHKPPKLPENFAFDVVHECAWGSRGSFIPARYNSSRAKCIKCGYCSMYFSPNKFIFHSHRTPDAKYTQPDAANFNSWRRHLKLSDKSATDELSHAWEDVKAMFNGGTRKRTFSLQGGGGGGANGGSGGQGKGGAGGGGGGGPGCGAEMAPGPPPHKSLRCGEDEAAGPPGPPPPHPQRGLGLATGASGPAGPGGPGGGAGVRSYPVIPVPSKGFGLLQKLPPPLFPHPYGFPTAFGLCPKKDDPVLGAGEPKGGPGTGSGGGGAGTGGGAGGPGASHLPPGAGAGPGGGAMFWGHQPSGAAKDAAAVAAAAAAATVYPTFPMFWPAAGSLPVPSYPAAQSQAKAVAAAVAAAAAAAAAAAGSGAPEPLDGAEPAKESGLGAEERCPSALSRGPLDEDGTDEALPPPLAPLPPPPPPPARKGSYVSAFRPVVKDTESIAKLYGSAREAYGAGPARGPGPGAGSGGYVSPDFLSEGSSSYNSASPDVDTADEPEVDVESNRFPDDEDAQEETEPSAPSAGGGPDGEQPTGPPSATSSGADGPANSPDGGSPRPRRRLGPPPAGRPAFGDLAAEDLVRRPERSPPSGGGGYELREPCGPLGGPAPAKVFAPERDEHVKSAAVALGPAASYVCTPEAHEPDKEDNHSPADDLETRKSYPDQRSISQPSPANTDRGEDGLTLDVTGTHLVEKDIENLAREELQKLLLEQMELRKKLEREFQSLKDNFQDQMKRELAYREEMVQQLQIVRDTLCNELDQERKARYAIQQKLKEAHDALHHFSCKMLTPRHCTGNCSFKPPLLP

No constants are given. Whether binding was seen depends on the method and setting. In cells and extracts the contact can be indirect. These calls come from enrichment with a bait or labelling near it, and not all partners need be listed.
